Drawing on publication PMC11904043, this text covers binding for 1 molecule.

Sequences of proteins named here, by UniProt entry; tags and fusion partners are left off.
UniProt Q13131: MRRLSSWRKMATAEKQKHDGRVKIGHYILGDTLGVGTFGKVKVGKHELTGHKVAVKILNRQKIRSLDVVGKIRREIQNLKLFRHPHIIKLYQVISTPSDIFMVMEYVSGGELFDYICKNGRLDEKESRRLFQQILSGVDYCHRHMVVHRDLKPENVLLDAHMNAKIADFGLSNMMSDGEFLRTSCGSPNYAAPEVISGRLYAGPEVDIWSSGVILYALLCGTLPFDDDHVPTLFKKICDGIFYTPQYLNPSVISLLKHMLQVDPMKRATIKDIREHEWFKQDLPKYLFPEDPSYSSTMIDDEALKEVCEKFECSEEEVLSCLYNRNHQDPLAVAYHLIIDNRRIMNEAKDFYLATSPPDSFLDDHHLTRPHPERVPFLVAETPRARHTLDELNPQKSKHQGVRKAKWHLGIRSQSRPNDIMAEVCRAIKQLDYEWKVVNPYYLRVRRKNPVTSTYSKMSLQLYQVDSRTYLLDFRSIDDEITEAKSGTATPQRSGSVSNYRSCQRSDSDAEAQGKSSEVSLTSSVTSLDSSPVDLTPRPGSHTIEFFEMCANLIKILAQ
UniProt P54646: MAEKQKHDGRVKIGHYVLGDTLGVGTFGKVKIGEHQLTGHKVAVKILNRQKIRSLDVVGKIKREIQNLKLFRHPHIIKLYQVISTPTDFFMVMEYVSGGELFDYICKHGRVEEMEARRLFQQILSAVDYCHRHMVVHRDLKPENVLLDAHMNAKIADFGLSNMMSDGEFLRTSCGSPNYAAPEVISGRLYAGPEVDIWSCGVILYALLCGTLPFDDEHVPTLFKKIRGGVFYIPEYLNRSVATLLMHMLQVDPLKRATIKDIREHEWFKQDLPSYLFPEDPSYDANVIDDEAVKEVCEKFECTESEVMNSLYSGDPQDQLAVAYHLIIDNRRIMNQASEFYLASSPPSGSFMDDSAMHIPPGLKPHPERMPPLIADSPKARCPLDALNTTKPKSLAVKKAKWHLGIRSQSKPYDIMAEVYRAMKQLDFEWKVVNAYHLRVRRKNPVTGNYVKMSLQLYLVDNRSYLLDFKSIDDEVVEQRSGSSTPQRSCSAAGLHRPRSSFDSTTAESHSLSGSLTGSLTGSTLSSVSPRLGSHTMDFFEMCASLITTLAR

No constants are given. Whether binding was seen depends on the method and setting. Binding seen in cells or lysates may run through a third protein. Some binding calls cover weakened binding; strength is not graded here.

For test [1], the target named is PRKAA1-flag (UniProt Q13131). As to the kind of experiment: co-IP; Huh7 cells cotransfected with TBK1 and PRKAA1-flag or PRKAA2-flag, with or without HEV infection for 48 h; lysate incubated with the indicated primary antibody overnight at 4 °C, then protein A/G-agarose beads for 4 h; Western blotting. Background: Immunoblotting shows a protein as a band on a membrane.

The target in test [2] is PRKAA2-flag (UniProt P54646). Described as above.

B1: TBK1 (protein, UniProt Q9UHD2 1-729)
chain: MQSTSNHLWLLSDILGQGATANVFRGRHKKTGDLFAIKVFNNISFLRPVDVQMREFEVLKKLNHKNIVKLFAIEEETTTRHKVLIMEFCPCGSLYTVLEEPSNAYGLPESEFLIVLRDVVGGMNHLRENGIVHRDIKPGNIMRVIGEDGQSVYKLTDFGAARELEDDEQFVSLYGTEEYLHPDMYERAVLRKDHQKKYGATVDLWSIGVTFYHAATGSLPFRPFEGPRRNKEVMYKIITGKPSGAISGVQKAENGPIDWSGDMPVSCSLSRGLQVLLTPVLANILEADQEKCWGFDQFFAETSDILHRMVIHVFSLQQMTAHKIYIHSYNTATIFHELVYKQTKIISSNQELIYEGRRLVLEPGRLAQHFPKTTEENPIFVVSREPLNTIGLIYEKISLPKVHPRYDLDGDASMAKAITGVVCYACRIASTLLLYQELMRKGIRWLIELIKDDYNETVHKKTEVVITLDFCIRNIEKTVKVYEKLMKINLEAAELGEISDIHTKLLRLSSSQGTIETSLQDIDSRLSPGGSLADAWAHQEGTHPKDRNVEKLQVLLNCMTEIYYQFKKDKAERRLAYNEEQIHKFDKQKLYYHATKAMTHFTDECVKKYEAFLNKSEEWIRKMLHLRKQLLSLTNQCFDIEEEVSKYQEYTNELQETLPQKMFTASSGIKHTMTPIYPSSNTLVEMTLGMKKLKEEMEGVVKELAENNHILERFGSLTMDGGLRNVDCL
Consider B1, for which the binding result in test [1] and in test [2] was “binds” in each case.
